No constants are given. Whether binding was seen depends on the method and setting. Some entries that bind do so weakly or less than the wild type.

By UniProt entry, the sequences of proteins in these tests, tags left out. Where a name states a change or a piece, a line headed by the entry shows the natural chain unless it says otherwise.
UniProt P04386: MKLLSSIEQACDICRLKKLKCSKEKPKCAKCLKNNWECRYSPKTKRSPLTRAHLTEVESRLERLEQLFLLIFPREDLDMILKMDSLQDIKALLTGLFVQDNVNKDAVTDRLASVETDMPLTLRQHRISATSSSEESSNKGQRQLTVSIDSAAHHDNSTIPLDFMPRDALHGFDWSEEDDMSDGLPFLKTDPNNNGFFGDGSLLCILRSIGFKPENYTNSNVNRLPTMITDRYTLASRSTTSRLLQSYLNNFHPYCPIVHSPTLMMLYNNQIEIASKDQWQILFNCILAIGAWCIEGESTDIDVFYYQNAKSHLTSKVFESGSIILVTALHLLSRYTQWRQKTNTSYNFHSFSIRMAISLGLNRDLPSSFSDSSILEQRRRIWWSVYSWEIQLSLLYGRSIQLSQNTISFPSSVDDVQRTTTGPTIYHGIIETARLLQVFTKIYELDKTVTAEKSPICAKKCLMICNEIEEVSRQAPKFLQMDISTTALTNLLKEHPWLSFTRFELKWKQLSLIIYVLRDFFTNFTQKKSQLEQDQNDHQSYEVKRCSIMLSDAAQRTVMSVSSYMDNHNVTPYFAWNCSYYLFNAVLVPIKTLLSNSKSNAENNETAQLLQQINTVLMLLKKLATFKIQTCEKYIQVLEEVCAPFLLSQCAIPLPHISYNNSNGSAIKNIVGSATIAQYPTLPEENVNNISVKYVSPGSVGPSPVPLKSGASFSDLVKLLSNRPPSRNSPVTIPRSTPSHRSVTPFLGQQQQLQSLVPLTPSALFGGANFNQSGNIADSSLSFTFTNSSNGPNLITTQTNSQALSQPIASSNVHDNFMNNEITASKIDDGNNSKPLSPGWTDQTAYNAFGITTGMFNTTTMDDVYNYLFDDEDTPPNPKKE
UniProt P16383: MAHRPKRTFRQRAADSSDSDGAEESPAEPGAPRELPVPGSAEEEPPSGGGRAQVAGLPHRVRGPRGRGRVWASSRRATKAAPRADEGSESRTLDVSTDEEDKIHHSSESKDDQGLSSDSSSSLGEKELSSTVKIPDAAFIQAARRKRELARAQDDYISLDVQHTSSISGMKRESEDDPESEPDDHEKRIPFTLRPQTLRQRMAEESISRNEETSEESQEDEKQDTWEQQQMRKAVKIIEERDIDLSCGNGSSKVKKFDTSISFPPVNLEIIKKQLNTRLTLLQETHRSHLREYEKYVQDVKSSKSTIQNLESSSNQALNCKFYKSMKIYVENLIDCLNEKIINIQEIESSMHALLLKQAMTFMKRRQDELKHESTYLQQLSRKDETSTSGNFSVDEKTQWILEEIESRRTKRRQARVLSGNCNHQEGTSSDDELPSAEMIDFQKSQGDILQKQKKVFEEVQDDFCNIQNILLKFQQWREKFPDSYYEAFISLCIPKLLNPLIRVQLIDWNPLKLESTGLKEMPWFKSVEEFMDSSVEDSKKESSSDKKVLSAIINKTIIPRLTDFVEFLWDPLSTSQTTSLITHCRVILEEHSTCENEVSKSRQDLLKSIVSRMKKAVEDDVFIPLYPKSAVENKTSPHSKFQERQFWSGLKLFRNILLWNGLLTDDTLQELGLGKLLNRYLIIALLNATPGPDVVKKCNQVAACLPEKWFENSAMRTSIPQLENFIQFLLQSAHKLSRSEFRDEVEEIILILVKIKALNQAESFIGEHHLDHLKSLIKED
UniProt Q8NG31: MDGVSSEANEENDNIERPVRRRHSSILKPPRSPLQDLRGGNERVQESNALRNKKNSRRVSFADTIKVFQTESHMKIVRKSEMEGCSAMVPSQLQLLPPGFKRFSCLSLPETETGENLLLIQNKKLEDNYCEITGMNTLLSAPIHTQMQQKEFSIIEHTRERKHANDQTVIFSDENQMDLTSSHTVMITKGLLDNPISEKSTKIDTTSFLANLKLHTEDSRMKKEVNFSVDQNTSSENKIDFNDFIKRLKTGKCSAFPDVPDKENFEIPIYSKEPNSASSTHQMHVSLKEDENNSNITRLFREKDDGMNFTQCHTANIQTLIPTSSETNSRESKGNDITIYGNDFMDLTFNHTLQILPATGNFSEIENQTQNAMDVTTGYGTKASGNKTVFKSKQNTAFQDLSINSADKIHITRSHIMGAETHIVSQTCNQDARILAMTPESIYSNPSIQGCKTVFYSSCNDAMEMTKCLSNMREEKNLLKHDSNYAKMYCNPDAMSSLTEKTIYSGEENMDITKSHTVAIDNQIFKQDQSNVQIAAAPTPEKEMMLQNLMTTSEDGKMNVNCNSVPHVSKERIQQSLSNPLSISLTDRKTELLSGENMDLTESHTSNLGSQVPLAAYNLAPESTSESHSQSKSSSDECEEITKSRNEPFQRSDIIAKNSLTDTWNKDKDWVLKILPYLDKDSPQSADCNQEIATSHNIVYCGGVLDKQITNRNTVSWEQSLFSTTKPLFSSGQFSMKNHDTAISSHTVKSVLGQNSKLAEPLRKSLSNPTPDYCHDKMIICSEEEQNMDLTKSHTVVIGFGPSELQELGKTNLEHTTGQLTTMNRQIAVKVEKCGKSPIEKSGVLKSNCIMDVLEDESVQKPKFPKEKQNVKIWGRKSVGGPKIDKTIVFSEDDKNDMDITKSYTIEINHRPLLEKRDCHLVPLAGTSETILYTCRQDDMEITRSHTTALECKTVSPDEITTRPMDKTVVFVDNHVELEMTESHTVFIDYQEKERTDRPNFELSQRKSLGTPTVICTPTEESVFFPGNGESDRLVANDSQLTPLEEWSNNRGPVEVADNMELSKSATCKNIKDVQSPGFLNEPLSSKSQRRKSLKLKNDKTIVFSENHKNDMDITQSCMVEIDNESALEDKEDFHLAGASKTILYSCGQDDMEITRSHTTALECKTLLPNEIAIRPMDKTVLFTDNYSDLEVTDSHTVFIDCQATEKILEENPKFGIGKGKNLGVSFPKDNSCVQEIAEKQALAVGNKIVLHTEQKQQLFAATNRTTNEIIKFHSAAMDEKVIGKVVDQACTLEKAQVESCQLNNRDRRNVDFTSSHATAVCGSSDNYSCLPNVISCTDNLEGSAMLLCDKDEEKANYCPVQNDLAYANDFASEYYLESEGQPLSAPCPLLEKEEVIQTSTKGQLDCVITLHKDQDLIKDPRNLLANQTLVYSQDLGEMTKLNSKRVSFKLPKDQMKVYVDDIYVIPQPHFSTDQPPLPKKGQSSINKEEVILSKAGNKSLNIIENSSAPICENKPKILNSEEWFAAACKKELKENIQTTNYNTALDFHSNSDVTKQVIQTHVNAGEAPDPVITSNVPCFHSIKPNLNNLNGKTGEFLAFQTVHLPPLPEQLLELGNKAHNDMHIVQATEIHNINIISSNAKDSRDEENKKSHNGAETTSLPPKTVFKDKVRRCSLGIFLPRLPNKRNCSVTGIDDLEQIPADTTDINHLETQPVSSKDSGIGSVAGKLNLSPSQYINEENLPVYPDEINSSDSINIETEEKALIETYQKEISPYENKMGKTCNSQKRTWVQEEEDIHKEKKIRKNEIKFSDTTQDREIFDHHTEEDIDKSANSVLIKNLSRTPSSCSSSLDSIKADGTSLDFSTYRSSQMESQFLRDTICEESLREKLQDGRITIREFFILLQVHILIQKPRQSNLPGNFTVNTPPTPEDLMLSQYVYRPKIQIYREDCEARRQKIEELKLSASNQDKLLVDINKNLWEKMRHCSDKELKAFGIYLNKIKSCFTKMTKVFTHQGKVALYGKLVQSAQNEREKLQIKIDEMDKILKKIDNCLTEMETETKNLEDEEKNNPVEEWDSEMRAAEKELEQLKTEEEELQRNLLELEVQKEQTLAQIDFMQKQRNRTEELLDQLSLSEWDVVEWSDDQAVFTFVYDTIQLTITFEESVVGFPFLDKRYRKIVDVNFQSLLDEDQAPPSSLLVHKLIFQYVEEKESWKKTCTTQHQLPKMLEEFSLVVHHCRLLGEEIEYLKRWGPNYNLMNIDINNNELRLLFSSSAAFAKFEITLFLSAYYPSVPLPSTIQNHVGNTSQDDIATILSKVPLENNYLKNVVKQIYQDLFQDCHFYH

For the test, the target named is GalDBD-GCF (fusion protein of the DNA-binding domain of Gal4 and transcription factor GCF, from plasmid pGAL-GCF) (yeast) (UniProt P04386+P16383). Description: yeast Two-hybrid System (His3 and LacZ reporters), Gal4 DBD-GCF bait against a human B cell cDNA library clone.

Regarding “D40 (protein encoded by the D40 cDNA clone isolated in the yeast Two-hybrid screen) (from UniProt Q8NG31 1-911)”, the binding result is given as “binds”.
